The target in this assay is T1, Myc-ID1 (UniProt P41134).
T1 sequence: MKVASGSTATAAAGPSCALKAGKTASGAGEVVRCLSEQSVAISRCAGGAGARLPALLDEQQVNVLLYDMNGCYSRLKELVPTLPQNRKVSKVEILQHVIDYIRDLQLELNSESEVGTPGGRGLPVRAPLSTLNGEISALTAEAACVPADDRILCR
Description: co-IP; truncated constructs of ID1 (pEBG-GST) tested with TRIM21 and truncated constructs of TRIM21 (pcDNA3) tested with ID1; cells not given.

Results are given in words; binding and its absence hold for the method and conditions named. Binding seen in cells or lysates may run through a third protein. Where a sequence is shown, tags or fusion partners need not be part of it.

Regarding “TRIM21#2 (coiled-coil domain) (domain or fragment)”, the binding entry is given as “no binding”. With “TRIM21#1 (zinc finger domain) (domain or fragment)” the entry was “no binding”.

The values are drawn from paper PMC12462935, “TRIM21‐Mediated K11‐Linked Ubiquitination of ID1 Suppresses Tumorigenesis and Promotes Cuproptosis in Esophageal Squamous Cell Carcinoma” (Advanced Science, 2025).
